Test results from article PMC9896034.
No constants are given. Whether binding was seen depends on the method and setting. Binding seen in cells or lysates may run through a third protein. Some results given as binding are weak or reduced against the parent protein; the word gives no strength.

Sequences of proteins named here, by UniProt entry; tags and fusion partners are left off. A change or cut given only in a name is not applied to a line headed by its entry.
UniProt Q13177: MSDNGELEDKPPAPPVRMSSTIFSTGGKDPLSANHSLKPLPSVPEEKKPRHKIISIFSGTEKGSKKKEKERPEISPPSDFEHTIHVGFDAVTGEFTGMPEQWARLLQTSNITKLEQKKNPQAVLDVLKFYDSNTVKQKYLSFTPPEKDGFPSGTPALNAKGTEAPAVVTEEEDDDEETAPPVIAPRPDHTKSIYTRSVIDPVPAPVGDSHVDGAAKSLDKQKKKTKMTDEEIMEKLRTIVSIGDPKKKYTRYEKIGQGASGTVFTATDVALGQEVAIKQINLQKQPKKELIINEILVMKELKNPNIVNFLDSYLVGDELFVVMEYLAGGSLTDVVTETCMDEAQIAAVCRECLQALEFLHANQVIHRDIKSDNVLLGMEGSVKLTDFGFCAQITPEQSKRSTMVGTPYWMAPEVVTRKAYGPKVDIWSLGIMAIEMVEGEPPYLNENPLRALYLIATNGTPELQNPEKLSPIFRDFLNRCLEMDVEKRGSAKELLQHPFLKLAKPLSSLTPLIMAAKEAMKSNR
UniProt O15198: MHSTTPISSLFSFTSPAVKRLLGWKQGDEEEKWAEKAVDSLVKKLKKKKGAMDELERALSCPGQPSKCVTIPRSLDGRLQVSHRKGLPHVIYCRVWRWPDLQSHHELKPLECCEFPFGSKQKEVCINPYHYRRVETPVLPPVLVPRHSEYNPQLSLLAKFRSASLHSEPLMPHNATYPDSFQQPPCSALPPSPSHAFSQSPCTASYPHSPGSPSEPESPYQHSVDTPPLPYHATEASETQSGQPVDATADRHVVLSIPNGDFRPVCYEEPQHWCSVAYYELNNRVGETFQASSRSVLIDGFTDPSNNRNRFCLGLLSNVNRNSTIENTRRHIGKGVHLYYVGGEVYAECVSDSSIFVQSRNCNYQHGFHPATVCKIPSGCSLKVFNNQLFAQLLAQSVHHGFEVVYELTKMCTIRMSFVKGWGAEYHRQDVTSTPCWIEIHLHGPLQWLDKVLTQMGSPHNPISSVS

Legend:
Experiment in all cases: co-IP; whole cell lysates in NP-40 lysis buffer with protease and phosphatase inhibitors; immunoprecipitated with anti-HA-PAK2 antibody at 4 °C overnight, protein A/G beads, immunoblotted with the corresponding antibodies (anti-FLAG or anti-HA)
[1] = target: HA-tagged WT-PAK2 (p21-activated kinase 2) (human) (UniProt Q13177)
PAK2-E253A (human) = PAK2-E253A (human) (UniProt Q13177)
PAK2-P151S (human) = PAK2-P151S (human) (UniProt Q13177)

With “Flag-tagged WT Smad9 (from UniProt O15198 1-467)” the binding [1] was “binds”, the binding (PAK2-E253A (human)) was “no binding” and the binding (PAK2-P151S (human)) was “no binding”.
For “Flag-tagged kinase-deficient (S417E) Smad9 (from UniProt O15198 1-467)”, the binding [1] was “no binding”.
